Data from paper PMC11032447.
Results are given in words; binding and its absence hold for the method and conditions named. Some entries that bind do so weakly or less than the wild type. Where a sequence is shown, tags or fusion partners need not be part of it.

Target: His6-tagged GFP-fusion construct carrying the mouse SNAP-25 14-33 peptide as C-terminal tag (mouse)
Assay: crystal structure; human secretagogin/GFP-SNAP-25 peptide complex; vapor diffusion at 4 °C; 25 mM Tris-HCl pH 8.0, 150 mM NaCl, 2 mM CaCl2; 2.30 Å; P212121, two copies in the asymmetric unit; both purified

- binding: binds
B1: human secretagogin, co-expressed and co-purified with the GFP-SNAP-25 peptide fusion (protein, UniProt O76038 1-276)
chain: MDSSREPTLGRLDAAGFWQVWQRFDADEKGYIEEKELDAFFLHMLMKLGTDDTVMKANLHKVKQQFMTTQDASKDGRIRMKELAGMFLSEDENFLLLFRRENPLDSSVEFMQIWRKYDADSSGFISAAELRNFLRDLFLHHKKAISEAKLEEYTGTMMKIFDRNKDGRLDLNDLARILALQENFLLQFKMDACSTEERKRDFEKIFAYYDVSKTGALEGPEVDGFVKDMMELVQPSISGVDLDKFREILLRHCDVNKDGKIQKSELALCLGLKINP
